Data taken from patent publication US10597364B2, “Anthelmintic compounds, compositions and method of using thereof” (priority 2015, dated 2020).
Some of these results come from one statement about several compounds together.

System: Caco-2/TC7 cells
Settings: intestinal cell model, relative to CC-1 (WO2014/023723)

| SMILES | more permeable relative to the prior art compound CC-1 |
| --- | --- |
| N#Cc1ccc(NC2CCC(Oc3cncc(N4CCN(c5ccc(C(F)(F)F)cn5)CC4)c3)CC2)cc1C(F)(F)F (centres unmarked) [Compound 6, 4-[[4-[(5-[4-[5-(trifluoromethyl)pyridin-2-yl]piperazin-1-yl]pyridin-3-yl)oxy]cyclohexyl]amino]-2-(trifluoromethyl)benzonitrile] | 200-300% |
| O=C(Cc1ccc(F)cc1)N1CCN(c2cncc(O[C@H]3CC[C@H](Nc4ccc([N+](=O)[O-])c(C(F)(F)F)c4)CC3)c2)CC1 [Compound 22] | over 300% |
